Experimental data as given in patent US7544483B2, “Method for the production of protamine” (priority 2002, dated 2009).
Some results were stated once for a whole list of compounds, not compound by compound.

System: microbial cells
Test: Bacteriocidal/fungicidal effect of mixed citrate, bicarbonate and phosphate solutions
Assay type: cell-based
Settings: in a solution comprising citrate and bicarbonate and/or phosphate

protamine
concentration causing a synergistic bacteriostatic/fungistatic and/or bacteriocidal/fungicidal effect: less than 0.1 μg/ml

lysozyme
concentration causing a synergistic bacteriostatic/fungistatic and/or bacteriocidal/fungicidal effect: less than 0.1 μg/ml
